No constants are given. Whether binding was seen depends on the method and setting. Binding seen in cells or lysates may run through a third protein. Some binding calls cover weakened binding; strength is not graded here.
Columns and labels:
[1] = molecular target: GABAA receptor α1 subunit (UniProt P62812); assay: co-IP; HEK293 cells co-transfected; lysis buffer 50 mM Tris pH 7.5, 150 mM NaCl, 1 mM EDTA, 1% NP40; anti-KCC2, APPc or anti-GABAAR α1 antibody at 4°C overnight, protein A agarose; rabbit or mouse IgG as control; western blot
[2] = molecular target: full length human APP (hAPP695) (human) (UniProt P05067); assay: as above

The chains behind the UniProt entries cited, without tags or fusion partners. Residues count along the entry.
UniProt P62812, residues 28-455: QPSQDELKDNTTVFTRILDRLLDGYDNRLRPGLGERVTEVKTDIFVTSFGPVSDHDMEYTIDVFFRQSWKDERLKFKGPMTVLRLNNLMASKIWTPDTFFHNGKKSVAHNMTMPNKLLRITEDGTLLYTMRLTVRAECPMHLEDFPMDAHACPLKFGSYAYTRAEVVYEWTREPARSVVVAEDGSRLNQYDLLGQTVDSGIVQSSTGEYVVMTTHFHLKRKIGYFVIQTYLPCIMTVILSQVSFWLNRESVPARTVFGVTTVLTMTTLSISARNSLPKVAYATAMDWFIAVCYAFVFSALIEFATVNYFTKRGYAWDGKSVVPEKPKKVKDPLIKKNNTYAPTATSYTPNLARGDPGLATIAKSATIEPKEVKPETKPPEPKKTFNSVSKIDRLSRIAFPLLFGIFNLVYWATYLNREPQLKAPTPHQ

binding [1]: no binding
binding [2]: binds
B1: K+-Cl- cotransporter KCC2 (protein, UniProt Q63633-2 1-1116)
chain: MLNNLTDCEDGDGGANPGDGNPKESSPFINSTDTEKGREYDGRNMALFEEEMDTSPMVSSLLSGLANYTNLPQGSKEHEEAENNEGGKKKPVQAPRMGTFMGVYLPCLQNIFGVILFLRLTWVVGIAGIMESFCMVFICCSCTMLTAISMSAIATNGVVPAGGSYYMISRSLGPEFGGAVGLCFYLGTTFAGAMYILGTIEILLAYLFPAMAIFKAEDASGEAAAMLNNMRVYGTCVLTCMATVVFVGVKYVNKFALVFLGCVILSILAIYAGVIKSAFDPPNFPICLLGNRTLSRHGFDVCAKLAWEGNETVTTRLWGLFCSSRLLNATCDEYFTRNNVTEIQGIPGAASGLIKENLWSSYLTKGVIVERRGMPSVGLADGTPVDMDHPYVFSDMTSYFTLLVGIYFPSVTGIMAGSNRSGDLRDAQKSIPTGTILAIATTSAVYISSVVLFGACIEGVVLRDKFGEAVNGNLVVGTLAWPSPWVIVIGSFFSTCGAGLQSLTGAPRLLQAISRDGIVPFLQVFGHGKANGEPTWALLLTACICEIGILIASLDEVAPILSMFFLMCYMFVNLACAVQTLLRTPNWRPRFRYYHWTLSFLGMSLCLALMFICSWYYALVAMLIAGLIYKYIEYRGAEKEWGDGIRGLSLSAARYALLRLEEGPPHTKNWRPQLLVLVRVDQDQNVVHPQLLSLTSQLKAGKGLTIVGSVLEGTFLDNHPQAQRAEESIRRLMEAEKVKGFCQVVISSNLRDGVSHLIQSGGLGGLQHNTVLVGWPRNWRQKEDHQTWRNFIELVRETTAGHLALLVTKNVSMFPGNPERFSEGSIDVWWIVHDGGMLMLLPFLLRHHKVWRKCKMRIFTVAQMDDNSIQMKKDLTTFLYHLRITAEVEVVEMHESDISAYTYEKTLVMEQRSQILKQMHLTKNEREREIQSITDESRGSIRRKNPANTRLRLNVPEETACDNEEKPEEEVQLIHDQSAPSCPSSSPSPGEEPEGEGETDPEKVHLTWTKDKSAAQKNKGPSPVSSEGIKDFFSMKPEWENLNQSNVRRMHTAVRLNEVIVNKSRDAKLVLLNMPGPPRNRNGDENYMEFLEVLTEQLDRVMLVRGGGREVITIYS

Reference: paper PMC5224924
